These results are taken from paper PMC4081063, “The conformational state of the nucleosome entry–exit site modulates TATA box-specific TBP binding”.

Chains of the proteins cited; added tags and fusions are not shown. Chains listed by the source or under a name are the forms on record and can include a tag or linker.
UniProt P20226, whole entry: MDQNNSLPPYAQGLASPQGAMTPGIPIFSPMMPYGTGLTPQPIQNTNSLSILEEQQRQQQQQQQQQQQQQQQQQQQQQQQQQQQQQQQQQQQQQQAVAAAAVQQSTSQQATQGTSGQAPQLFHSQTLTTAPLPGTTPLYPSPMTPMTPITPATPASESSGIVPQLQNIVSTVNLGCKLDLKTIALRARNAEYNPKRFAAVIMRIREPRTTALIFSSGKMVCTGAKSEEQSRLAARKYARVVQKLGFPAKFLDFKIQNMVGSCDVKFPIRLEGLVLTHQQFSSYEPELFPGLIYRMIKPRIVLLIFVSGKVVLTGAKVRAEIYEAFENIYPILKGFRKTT
TBP (human TATA binding protein) + TFIIA (alpha/beta and gamma subunits), one chain, as listed by the source, chain 3 of 3: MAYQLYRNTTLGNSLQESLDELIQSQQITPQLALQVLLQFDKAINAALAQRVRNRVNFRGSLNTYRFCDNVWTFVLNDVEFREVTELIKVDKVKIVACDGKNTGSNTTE
TBP (human TATA binding protein) + TFIIA (alpha/beta and gamma subunits), one chain, as listed by the source, chain 1 of 3: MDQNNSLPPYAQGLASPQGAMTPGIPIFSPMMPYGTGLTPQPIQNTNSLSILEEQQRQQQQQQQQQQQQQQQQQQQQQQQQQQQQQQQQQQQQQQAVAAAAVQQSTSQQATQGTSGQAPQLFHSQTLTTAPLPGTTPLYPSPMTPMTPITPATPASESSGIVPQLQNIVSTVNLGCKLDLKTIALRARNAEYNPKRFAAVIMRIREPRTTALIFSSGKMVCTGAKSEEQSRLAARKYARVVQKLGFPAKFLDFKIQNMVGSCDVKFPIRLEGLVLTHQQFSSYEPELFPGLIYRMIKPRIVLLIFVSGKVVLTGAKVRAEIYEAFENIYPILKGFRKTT
TBP (human TATA binding protein) + TFIIA (alpha/beta and gamma subunits), one chain, as listed by the source, chain 2 of 3: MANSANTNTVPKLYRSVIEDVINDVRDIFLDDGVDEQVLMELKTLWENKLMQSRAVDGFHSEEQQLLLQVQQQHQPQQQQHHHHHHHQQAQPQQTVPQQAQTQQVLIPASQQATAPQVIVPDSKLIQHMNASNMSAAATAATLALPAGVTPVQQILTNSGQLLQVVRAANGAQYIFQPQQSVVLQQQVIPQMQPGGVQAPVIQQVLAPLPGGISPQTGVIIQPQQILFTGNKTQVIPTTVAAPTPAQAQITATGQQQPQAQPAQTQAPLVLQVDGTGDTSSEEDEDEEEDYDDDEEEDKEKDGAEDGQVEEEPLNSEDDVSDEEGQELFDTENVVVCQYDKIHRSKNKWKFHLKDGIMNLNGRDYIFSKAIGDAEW

In data set [1] the test system is TBP (human TATA binding protein) + TFIIA (alpha/beta and gamma subunits). Nature of the data set: bulk FRET. The following applies: 20 mM Tris pH 7.9, 4 mM MgCl2, 1 mM DTT, 5% glycerol, 5-150 mM KCl as indicated, 1 nM labeled DNA (1-5 nM in Results), 20 min, 25 C (37 C tested), recombinant protein.
Data set [2] has the same test system. Description: spFRET. The following applies: 50 mM KCl, 20 mM Tris pH 7.9, 4 mM MgCl2, 1 mM DTT, 5% glycerol, 5-150 mM KCl as indicated, 1 nM labeled DNA (1-5 nM in Results), 20 min, 25 C (37 C tested), recombinant protein.
Data set [3] concerns the target TBP (human TATA binding protein) (Homo sapiens) (UniProt P20226). Description: competition with a labelled probe. The conditions noted are these: 0 and 50 mM KCl, equimolar to TBP, removes biphasic off-site binding on TATA-14I; 20 mM Tris pH 7.9, 4 mM MgCl2, 1 mM DTT, 5% glycerol, 5-150 mM KCl as indicated, 1 nM labeled DNA (1-5 nM in Results), 20 min; 25 C (37 C tested); recombinant protein; label: unlabeled.

The target is the same in data set [4]. Description: spFRET. The conditions noted are these: 100 nM TBP (legend, text says 200 nM), no broadening; 20 mM Tris pH 7.9, 4 mM MgCl2, 1 mM DTT, 5% glycerol, 5-150 mM KCl as indicated, 1 nM labeled DNA (1-5 nM in Results), 20 min; 25 C (37 C tested); recombinant protein; label: donor and acceptor FRET pair.

The exact form of at least one protein or probe is not confirmed. For part of these data: At least one verdict was read from the data and is not stated in words by the source.

For “GGCTATAAAAGGGG (double strand) [TATA-14E]”, the binding result is “binds” in data set [1] (all KCl concentrations, very tight) and “binds” in data set [2] (higher affinity than TBP alone). On to “GGTGCCGAGGCCGTCAATTGCTCGTAGACAGC (double strand) [TATA-less competitor]”, for which the binding result in data set [3] is given as “binds”. With “TGGGGTATAAAAGGGGGTGGACACGTG (double strand) [TATA-18I]”, the binding result in data set [2] (200 nM, single species) is “binds”. With “TGGTATAAAAGGGA / CACGTGTCCGCTCCCTTTTATACCA [TATA-14Iss]”, the binding result in data set [4] is “binds”. Regarding “TGGTATAAAAGGGTGCGGACACGTG (double strand) [TATA-14I]”, the binding result in data set [1] (varying KCl, biphasic drop subdued) was “binds”.
